The values below come from patent publication US20150057229A1.

The chains behind the UniProt entries cited, without tags or fusion partners. Where a name states a change or a piece, a line headed by the entry shows the natural chain unless it says otherwise.
UniProt P98066: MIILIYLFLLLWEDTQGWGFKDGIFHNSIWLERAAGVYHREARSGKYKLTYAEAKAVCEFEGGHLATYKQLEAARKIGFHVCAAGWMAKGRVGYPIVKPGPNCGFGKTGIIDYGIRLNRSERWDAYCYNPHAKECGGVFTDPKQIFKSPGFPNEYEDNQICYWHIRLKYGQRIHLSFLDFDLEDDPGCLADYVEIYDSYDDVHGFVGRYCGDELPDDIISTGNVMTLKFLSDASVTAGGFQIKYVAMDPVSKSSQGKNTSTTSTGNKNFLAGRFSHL

These are yes or no findings as the source states them, for the method shown. Some entries that bind do so weakly or less than the wild type.

This assay addresses T1, sRANKL (soluble receptor activator of NFKB ligand) (UniProt O14788).
T1 sequence (looked up): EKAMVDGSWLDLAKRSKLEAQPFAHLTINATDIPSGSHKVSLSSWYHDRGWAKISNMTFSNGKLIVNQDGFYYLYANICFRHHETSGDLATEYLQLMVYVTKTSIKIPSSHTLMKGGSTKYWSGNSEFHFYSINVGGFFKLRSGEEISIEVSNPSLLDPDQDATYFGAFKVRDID
Description: plate-binding assay: TSG-6 protein coated on microtitre plates, sRANKL 5 pmol/well, detected with a RANKL-specific antibody.
On to “CUB_C_TSG6, isolated CUB_C domain of human TSG-6 (expressed in E. coli) (from UniProt P98066 129-277)”, for which the binding entry is listed as “binds”.
As for “Link_TSG6, isolated Link module domain of human TSG-6 (expressed in E. coli) (from UniProt P98066 36-133)”, the entry is “binds”.
With “Q144 allotype of the full-length human TSG-6 protein (recombinant, expressed in Drosophila S2 cells) (from UniProt P98066 18-277)”, the binding entry is given as “binds”.
